No constants are given. Whether binding was seen depends on the method and setting. In cells and extracts the contact can be indirect. These calls come from enrichment with a bait or labelling near it, and not all partners need be listed.
These molecules were tested against S1PR1-WT-miniTurbo (sphingosine 1-phosphate receptor 1, wild type, with miniTurbo fused to the C terminus) (UniProt P21453) (assay: proximity labelling; miniTurbo-tagged S1PR1-WT or -TM4 in HUVECs; 500 uM biotin, 3 h; biotinylated proteins purified on Tamavidin 2-REV magnetic beads; total (lysate) and biotinylated (eluate) FLNB seen by Western blot).

Sequences of proteins named here, by UniProt entry; tags and fusion partners are left off. Residues count along the entry.
UniProt P21453: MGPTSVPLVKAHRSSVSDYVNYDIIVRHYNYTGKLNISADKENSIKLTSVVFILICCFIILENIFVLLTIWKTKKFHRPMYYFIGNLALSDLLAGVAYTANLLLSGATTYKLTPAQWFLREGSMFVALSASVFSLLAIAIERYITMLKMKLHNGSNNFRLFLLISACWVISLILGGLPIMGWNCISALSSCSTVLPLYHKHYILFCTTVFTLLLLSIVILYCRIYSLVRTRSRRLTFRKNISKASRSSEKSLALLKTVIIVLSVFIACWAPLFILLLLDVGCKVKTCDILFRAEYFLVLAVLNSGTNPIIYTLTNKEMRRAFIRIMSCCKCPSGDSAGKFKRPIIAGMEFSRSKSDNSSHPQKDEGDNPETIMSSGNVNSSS
UniProt P26641: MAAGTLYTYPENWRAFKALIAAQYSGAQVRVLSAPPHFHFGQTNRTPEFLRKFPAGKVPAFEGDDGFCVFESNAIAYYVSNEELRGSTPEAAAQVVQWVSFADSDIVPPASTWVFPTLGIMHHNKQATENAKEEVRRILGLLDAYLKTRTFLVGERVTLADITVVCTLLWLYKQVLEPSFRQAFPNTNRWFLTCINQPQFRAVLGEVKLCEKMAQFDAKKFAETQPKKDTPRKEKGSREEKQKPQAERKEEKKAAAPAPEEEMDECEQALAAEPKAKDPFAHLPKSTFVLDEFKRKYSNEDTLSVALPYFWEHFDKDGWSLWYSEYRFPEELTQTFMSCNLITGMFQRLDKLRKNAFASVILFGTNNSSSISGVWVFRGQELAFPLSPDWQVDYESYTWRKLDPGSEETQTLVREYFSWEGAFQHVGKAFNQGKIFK
UniProt P17301, residues 30-1181: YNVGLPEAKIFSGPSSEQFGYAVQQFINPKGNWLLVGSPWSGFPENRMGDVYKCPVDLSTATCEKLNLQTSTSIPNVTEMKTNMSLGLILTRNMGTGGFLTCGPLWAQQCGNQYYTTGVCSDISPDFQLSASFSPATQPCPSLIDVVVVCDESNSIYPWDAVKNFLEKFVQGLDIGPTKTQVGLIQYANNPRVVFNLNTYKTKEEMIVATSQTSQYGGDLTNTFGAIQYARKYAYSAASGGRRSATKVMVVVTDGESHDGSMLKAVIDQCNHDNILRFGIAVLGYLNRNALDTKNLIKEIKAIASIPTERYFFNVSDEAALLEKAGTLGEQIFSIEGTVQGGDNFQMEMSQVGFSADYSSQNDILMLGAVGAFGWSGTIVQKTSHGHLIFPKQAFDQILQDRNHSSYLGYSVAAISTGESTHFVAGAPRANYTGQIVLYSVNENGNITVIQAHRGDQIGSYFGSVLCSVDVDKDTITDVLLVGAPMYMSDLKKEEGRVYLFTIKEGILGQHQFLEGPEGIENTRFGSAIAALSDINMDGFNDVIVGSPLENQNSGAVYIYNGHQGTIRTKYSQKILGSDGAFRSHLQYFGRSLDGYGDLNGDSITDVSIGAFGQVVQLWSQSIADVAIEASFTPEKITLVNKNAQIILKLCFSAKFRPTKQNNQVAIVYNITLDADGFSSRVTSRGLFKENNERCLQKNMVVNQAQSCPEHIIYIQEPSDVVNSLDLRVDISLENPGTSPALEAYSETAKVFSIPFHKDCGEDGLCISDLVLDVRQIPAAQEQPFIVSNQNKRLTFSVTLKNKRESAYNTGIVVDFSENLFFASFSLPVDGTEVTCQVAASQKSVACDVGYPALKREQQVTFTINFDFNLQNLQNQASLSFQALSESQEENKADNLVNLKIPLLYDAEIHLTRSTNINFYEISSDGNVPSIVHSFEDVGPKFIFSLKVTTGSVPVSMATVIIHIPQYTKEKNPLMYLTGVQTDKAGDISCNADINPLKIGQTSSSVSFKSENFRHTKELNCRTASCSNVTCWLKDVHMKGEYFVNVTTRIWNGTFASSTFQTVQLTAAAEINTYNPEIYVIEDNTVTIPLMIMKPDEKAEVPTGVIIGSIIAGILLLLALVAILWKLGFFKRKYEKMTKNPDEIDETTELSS
UniProt Q709C8: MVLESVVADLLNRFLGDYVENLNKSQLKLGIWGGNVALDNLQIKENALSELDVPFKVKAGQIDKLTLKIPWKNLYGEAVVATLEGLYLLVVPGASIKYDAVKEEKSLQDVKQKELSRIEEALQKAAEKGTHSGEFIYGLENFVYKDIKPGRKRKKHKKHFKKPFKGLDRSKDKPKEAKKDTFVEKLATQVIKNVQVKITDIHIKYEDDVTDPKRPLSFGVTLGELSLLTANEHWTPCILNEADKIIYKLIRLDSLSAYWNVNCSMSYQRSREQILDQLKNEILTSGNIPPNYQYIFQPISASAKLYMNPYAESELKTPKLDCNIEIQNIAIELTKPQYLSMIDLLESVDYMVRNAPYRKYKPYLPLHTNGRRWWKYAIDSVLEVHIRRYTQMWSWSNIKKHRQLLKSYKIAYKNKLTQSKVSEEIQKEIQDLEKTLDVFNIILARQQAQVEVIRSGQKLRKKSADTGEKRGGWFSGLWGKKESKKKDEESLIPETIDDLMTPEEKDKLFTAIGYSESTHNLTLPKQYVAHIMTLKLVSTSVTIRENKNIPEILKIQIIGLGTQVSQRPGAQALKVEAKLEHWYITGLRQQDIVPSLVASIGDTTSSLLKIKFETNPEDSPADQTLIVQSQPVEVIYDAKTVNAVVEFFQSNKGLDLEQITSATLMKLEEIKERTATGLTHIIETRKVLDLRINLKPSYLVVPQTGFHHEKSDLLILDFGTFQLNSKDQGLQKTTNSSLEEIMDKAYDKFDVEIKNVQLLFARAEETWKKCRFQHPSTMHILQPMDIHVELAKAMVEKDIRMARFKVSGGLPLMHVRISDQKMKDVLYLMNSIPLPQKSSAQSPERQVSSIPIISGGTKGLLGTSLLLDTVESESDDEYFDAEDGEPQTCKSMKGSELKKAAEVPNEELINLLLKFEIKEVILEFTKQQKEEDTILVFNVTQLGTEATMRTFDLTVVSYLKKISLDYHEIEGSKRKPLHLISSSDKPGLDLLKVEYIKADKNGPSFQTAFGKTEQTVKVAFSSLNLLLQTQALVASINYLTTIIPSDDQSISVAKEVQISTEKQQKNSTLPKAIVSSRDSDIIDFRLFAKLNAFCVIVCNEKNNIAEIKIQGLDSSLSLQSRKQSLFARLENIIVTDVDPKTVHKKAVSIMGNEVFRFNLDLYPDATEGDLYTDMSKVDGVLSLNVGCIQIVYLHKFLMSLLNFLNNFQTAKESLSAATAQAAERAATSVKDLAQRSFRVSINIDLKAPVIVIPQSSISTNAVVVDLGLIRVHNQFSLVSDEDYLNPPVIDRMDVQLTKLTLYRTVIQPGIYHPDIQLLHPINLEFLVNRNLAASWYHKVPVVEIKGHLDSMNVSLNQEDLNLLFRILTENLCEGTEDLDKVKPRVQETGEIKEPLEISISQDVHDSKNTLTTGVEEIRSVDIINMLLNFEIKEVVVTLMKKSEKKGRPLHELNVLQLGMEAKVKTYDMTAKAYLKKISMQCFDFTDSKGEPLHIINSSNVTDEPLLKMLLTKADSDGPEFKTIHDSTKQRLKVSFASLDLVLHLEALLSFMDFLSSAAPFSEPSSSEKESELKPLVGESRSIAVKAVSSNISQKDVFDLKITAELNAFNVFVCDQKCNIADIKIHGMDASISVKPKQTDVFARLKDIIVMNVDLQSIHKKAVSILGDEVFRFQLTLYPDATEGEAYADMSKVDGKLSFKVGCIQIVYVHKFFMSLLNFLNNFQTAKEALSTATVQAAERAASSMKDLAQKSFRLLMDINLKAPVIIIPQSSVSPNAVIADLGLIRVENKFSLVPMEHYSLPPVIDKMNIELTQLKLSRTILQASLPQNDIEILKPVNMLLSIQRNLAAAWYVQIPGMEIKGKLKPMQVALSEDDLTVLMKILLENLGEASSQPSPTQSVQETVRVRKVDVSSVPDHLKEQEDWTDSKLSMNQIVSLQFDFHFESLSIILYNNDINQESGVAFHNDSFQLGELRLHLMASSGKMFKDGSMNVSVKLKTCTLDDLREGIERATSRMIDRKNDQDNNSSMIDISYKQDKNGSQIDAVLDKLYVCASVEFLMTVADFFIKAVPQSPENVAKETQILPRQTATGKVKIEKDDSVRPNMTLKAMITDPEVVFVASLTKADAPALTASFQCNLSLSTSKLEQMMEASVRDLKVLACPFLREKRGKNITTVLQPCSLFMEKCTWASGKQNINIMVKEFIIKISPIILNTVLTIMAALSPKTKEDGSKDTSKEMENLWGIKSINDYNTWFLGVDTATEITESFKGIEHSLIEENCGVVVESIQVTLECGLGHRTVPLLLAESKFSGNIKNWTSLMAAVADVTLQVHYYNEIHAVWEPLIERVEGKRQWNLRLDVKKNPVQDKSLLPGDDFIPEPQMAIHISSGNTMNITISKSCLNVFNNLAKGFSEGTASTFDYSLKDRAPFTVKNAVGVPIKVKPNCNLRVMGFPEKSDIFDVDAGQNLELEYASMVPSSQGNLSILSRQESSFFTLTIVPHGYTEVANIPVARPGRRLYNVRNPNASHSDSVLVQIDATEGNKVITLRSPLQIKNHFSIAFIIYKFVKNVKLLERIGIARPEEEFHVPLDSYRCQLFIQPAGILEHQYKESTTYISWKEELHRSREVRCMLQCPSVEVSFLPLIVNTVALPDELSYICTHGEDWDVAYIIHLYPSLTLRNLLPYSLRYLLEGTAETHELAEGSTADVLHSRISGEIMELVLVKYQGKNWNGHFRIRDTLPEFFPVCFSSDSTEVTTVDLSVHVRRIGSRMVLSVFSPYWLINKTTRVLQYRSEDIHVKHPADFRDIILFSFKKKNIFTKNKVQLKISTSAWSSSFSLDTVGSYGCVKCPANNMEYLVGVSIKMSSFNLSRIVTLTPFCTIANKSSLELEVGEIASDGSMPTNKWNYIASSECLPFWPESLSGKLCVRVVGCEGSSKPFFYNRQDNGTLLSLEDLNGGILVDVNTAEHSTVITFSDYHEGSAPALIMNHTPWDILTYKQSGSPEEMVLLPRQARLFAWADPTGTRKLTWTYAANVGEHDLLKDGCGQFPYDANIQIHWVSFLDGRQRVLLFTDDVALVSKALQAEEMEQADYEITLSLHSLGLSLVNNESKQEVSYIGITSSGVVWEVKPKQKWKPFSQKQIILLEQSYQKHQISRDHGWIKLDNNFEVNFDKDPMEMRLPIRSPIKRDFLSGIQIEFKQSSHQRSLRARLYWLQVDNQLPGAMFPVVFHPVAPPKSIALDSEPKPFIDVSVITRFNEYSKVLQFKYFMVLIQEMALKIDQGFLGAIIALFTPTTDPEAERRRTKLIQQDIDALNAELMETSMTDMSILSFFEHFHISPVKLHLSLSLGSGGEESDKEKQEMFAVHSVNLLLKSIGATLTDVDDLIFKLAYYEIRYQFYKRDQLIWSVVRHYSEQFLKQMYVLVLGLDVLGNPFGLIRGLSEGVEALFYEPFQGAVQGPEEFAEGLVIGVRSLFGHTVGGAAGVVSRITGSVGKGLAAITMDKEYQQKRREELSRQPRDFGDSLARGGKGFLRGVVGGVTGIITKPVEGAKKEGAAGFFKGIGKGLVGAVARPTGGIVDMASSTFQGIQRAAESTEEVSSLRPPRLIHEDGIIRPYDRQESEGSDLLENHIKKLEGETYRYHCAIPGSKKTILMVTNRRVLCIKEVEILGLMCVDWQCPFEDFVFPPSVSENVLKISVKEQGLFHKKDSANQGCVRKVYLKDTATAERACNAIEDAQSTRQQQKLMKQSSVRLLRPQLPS
UniProt P30101, residues 25-505: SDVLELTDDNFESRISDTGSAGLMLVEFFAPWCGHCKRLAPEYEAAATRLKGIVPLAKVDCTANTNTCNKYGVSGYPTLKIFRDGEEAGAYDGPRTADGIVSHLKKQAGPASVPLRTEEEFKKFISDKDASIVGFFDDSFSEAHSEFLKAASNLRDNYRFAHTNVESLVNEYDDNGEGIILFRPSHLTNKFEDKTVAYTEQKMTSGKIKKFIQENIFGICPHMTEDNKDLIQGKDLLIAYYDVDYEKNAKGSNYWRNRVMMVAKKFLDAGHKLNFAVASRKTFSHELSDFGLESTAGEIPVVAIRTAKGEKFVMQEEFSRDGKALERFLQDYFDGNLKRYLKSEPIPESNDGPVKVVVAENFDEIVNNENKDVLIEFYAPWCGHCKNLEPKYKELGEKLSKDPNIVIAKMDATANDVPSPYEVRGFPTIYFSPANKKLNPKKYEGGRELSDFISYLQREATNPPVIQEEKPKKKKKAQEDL

| binding | Molecule |
| --- | --- |
| binds | Filamin B (from UniProt O75369 1-2602) |

The molecules below were run against S1PR1-WT-miniTurbo (sphingosine 1-phosphate receptor 1, wild type, with miniTurbo fused to the C terminus) (UniProt P21453) (assay: proximity labelling; miniTurbo fused to the C terminus of S1PR1 in HUVECs; 500 uM biotin, 37 °C, 3 h; biotinylated proteins captured on Tamavidin 2-REV magnetic beads, digested on beads, shot-gun LC-MS/MS; three sets in triplicate; hits: identified only in WT samples in at least two sets).

| binding | Molecule |
| --- | --- |
| binds | Elongation factor 1-gamma (from UniProt P26641 1-437) |
| binds | Filamin B (from UniProt O75369 1-2602) |
| binds | Ras GTPase-activating protein-binding protein 2 (protein, UniProt Q9UN86 1-482) MVMEKPSPLLVGREFVRQYYTLLNKAPEYLHRFYGRNSSYVHGGVDASGKPQEAVYGQNDIHHKVLSLNFSECHTKIRHVDAHATLSDGVVVQVMGLLSNSGQPERKFMQTFVLAPEGSVPNKFYVHNDMFRYEDEVFGDSEPELDEESEDEVEEEQEERQPSPEPVQENANSGYYEAHPVTNGIEEPLEESSHEPEPEPESETKTEELKPQVEEKNLEELEEKSTTPPPAEPVSLPQEPPKAFSWASVTSKNLPPSGTVSSSGIPPHVKAPVSQPRVEAKPEVQSQPPRVREQRPRERPGFPPRGPRPGRGDMEQNDSDNRRIIRYPDSHQLFVGNLPHDIDENELKEFFMSFGNVVELRINTKGVGGKLPNFGFVVFDDSEPVQRILIAKPIMFRGEVRLNVEEKKTRAARERETRGGGDDRRDIRRNDRGPGGPRGIVGGGMMRDRDGRGPPPRGGMAQKLGSGRGTGQMEGRFTGQRR |
| binds | Septin-2 (protein, UniProt Q15019 1-361) MSKQQPTQFINPETPGYVGFANLPNQVHRKSVKKGFEFTLMVVGESGLGKSTLINSLFLTDLYPERVIPGAAEKIERTVQIEASTVEIEERGVKLRLTVVDTPGYGDAINCRDCFKTIISYIDEQFERYLHDESGLNRRHIIDNRVHCCFYFISPFGHGLKPLDVAFMKAIHNKVNIVPVIAKADTLTLKERERLKKRILDEIEEHNIKIYHLPDAESDEDEDFKEQTRLLKASIPFSVVGSNQLIEAKGKKVRGRLYPWGVVEVENPEHNDFLKLRTMLITHMQDLQEVTQDLHYENFRSERLKRGGRKVENEDMNKDQILLEKEAELRRMQEMIARMQAQMQMQMQGGDGDGGALGHHV |

The remaining lines, values behind:

| Molecule | binding |
| --- | --- |
| Integrin alpha-2 (from UniProt P17301 30-1181) | binds |
| Vacuolar protein sorting-associated protein 13C (from UniProt Q709C8 1-3753) | binds |
| Protein disulfide-isomerase A3 (from UniProt P30101 25-505) | binds |
| RhoGEF and PH domain-containing protein 5 (protein, UniProt Q6ZNL6 1-1462) MFRGPKPPIAPKPRLTAPNEWRASVYLNDSLNKCSNGRLPCVDRGLDEGPRSIPKCSESETDEDYIVVPRVPLREDEPKDEGSVGNKALVSPESSAEEEEEREEGGEACGLEGTGAGEDSVAPAAPGAGALSREGEEGTDLALEDEGEGCADEPGTLEQVSRSEEEEKLVQPHRECSLEDSGPWAGEGVFQSDLLLPHIHGEDQEPPDTPGEAEEDDEEGCASTDPAGADEGSGPDRPTEDMGQDAEDTSEEPPEKEELAGVQEAETATDCPEVLEEGCEEATGVTGGEQVDLSEPPDHEKKTNQEVAAATLEDHAQDESAEESCQIVPFENDCMEDFVTSLTGSPYEFFPTESTSFCSESCSPLSESAKGLESEQAPKLGLRAEENPMVGALCGQCGSLQGGAAEGPAAPDVVVVLEEEALDDALANPYVMGVGLPGQAAPGEGGQAASDALGGYGSKEELNCEAEGGLVPADRKNTSTRVRPHSGKVAGYVPETVPEETGPEAGSSAPGIGGAAEEVGKTLLSLEGKPLEASRALPAKPRAFTLYPRSFSVEGREIPVSVYQEPEGSGLDDHRIKRKEDNLSLSCVIGSSGSFSQRNHLPSSGTSTPSSMVDIPPPFDLACITKKPITKSSPSLLIESDSPDKYKKKKSSFKRFLALTFKKKTENKLHVDVNVSSSRSSSESSYHGPSRILEVDRRSLSNSPQLKSRTGKLRASESPSSLIFYRDGKRKGVPFSRTVSRVESFEDRSRPPFLPLPLTKPRSISFPSADTSDYENIPAMNSDYENIQIPPRRPARAGAFTKLFEDQSRALSTANENDGYVDMSSFNAFESKQQSADQDAESAYTEPYKVCPISSAAPKEDLTSDEEQRSSEEEDSASRDPSVTHKVEGQSRALVIAQELLSSEKAYVEMLQHLNLDFHGAVMRALDDMDHEGRDTLAREELRQGLSELPAIHDLHQGILEELEERLSNWESQQKVADVFLAREQGFDHHATHILQFDRYLGLLSENCLHSPRLAAAVREFEQSVQGGSQTAKHRLLRVVQRLFQYQVLLTDYLNNLCPDSAEYDNTQGALSLISKVTDRANDSMEQGENLQKLVHIEHSVRGQGDLLQPGREFLKEGTLMKVTGKNRRPRHLFLMNDVLLYTYPQKDGKYRLKNTLAVANMKVSRPVMEKVPYALKIETSESCLMLSASSCAERDEWYGCLSRALPEDYKAQALAAFHHSVEIRERLGVSLGERPPTLVPVTHVMMCMNCGCDFSLTLRRHHCHACGKIVCRNCSRNKYPLKYLKDRMAKVCDGCFGELKKRGRAVPGLMRERPVSMSFPLSSPRFSGSAFSSVFQSINPSTFKKQKKVPSALTEVAASGEGSAISGYLSRCKRGKRHWKKLWFVIKGKVLYTYMASEDKVALESMPLLGFTIAPEKEEGSSEVGPIFHLYHKKTLFYSFKAEDTNSAQRWIEAMEDASVL | binds |
| PRA1 family protein 2 (protein, UniProt O60831 1-178) MSEVRLPPLRALDDFVLGSARLAAPDPCDPQRWCHRVINNLLYYQTNYLLCFGIGLALAGYVRPLHTLLSALVVAVALGVLVWAAETRAAVRRCRRSHPAACLAAVLAVGLLVLWVAGGACTFLFSIAGPVLLILVHASLRLRNLKNKIENKIESIGLKRTPMGLLLEALGQEQEAGS | binds |

Reference: paper PMC10300261
